Measurements reported in PubChem BioAssay AID1259254 (NCATS, 2017).
Screen: 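Genome-wide screen for genes that prevent DNA re-replication in cancer cells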 (primary screen). Cell system: human HCT116 colorectal cancer cells. Reagent: single siRNA against human genes. Time to read-out: 3 days. Detection: 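Imaged Hoechst DNA stain sorts each cell into a cycle phase by DNA amount; per plate, G2 fraction set to 0% for non-targeting and 100% for GMNN siRNA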. Scale: G2 robust z-score: higher = more G2 cells, more excess DNA replication. Hit rule: 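An siRNA counts as active if its G2 robust z-score lies at least 5 MADs above the screen median; here such calls match roughly 38% of GMNN control or more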.
Shown is one part, drawn at random, of about 59,000 reagents tested. Of all reagents, about 1,550 (2.6%) are marked active. 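G2 share is only a proxy for re-replication; each gene was hit by three separate siRNAs, and active genes were retested.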 Unmarked entries are inactive. Not all columns of the deposit are shown. The record does not give: the amount of reagent.

gene | PubChem SID | G2 robust z-score
VSTM2L (V-set and transmembrane domain containing 2 like) | SID160724796 | 1.09
VSTM2L (V-set and transmembrane domain containing 2 like) | SID160724797 | -0.184
VSTM2L (V-set and transmembrane domain containing 2 like) | SID160756765 | 1.44
SACK1C (scaffolding CK1 anchoring protein C) | SID160756821 | 2.46
SACK1C (scaffolding CK1 anchoring protein C) | SID160756822 | 0.146
SACK1C (scaffolding CK1 anchoring protein C) | SID160756823 | 0.397
RSU1 (Ras suppressor protein 1) | SID160716247 | 3.17
RSU1 (Ras suppressor protein 1) | SID160716248 | -0.0221
RSU1 (Ras suppressor protein 1) | SID160716249 | 2.92
PIGY (phosphatidylinositol glycan anchor biosynthesis class Y) | SID160735135 | 1.12
PIGY (phosphatidylinositol glycan anchor biosynthesis class Y) | SID160753101 | -0.869
PIGY (phosphatidylinositol glycan anchor biosynthesis class Y) | SID160753102 | -0.176
MAP3K20 (mitogen-activated protein kinase kinase kinase 20) | SID160741345 | -1.58
MAP3K20 (mitogen-activated protein kinase kinase kinase 20) | SID160741346 | 1.1
MAP3K20 (mitogen-activated protein kinase kinase kinase 20) | SID160741347 | 0.18
SLC13A4 | SID160737865 | 0.408
SLC13A4 | SID160737866 | 0.056
SLC13A4 | SID160737867 | 2.82
CCDC117 (coiled-coil domain containing 117) | SID160758938 | -0.421
CCDC117 (coiled-coil domain containing 117) | SID160758939 | -0.759
CCDC117 (coiled-coil domain containing 117) | SID160758940 | -0.128
PGK2 (phosphoglycerate kinase 2) | SID160714213 | -1.04
PGK2 (phosphoglycerate kinase 2) | SID160714214 | -0.582
PGK2 (phosphoglycerate kinase 2) | SID160714215 | 0.462
CSN1S2AP (casein alpha s2 like A, pseudogene) | SID160763896 | 0.449
CSN1S2AP (casein alpha s2 like A, pseudogene) | SID160763897 | 0.66
CSN1S2AP (casein alpha s2 like A, pseudogene) | SID160763899 | 0.14
ZNF223 (zinc finger protein 223) | SID160719296 | -0.602
ZNF223 (zinc finger protein 223) | SID160719299 | -0.264
ZNF223 (zinc finger protein 223) | SID160719300 | -0.172
DLG2 (discs large MAGUK scaffold protein 2) | SID160754577 | 1.28
DLG2 (discs large MAGUK scaffold protein 2) | SID160754587 | -0.308
DLG2 (discs large MAGUK scaffold protein 2) | SID160754597 | 3.76
PRPS1 (phosphoribosyl pyrophosphate synthetase 1) | SID160715078 | -0.0867
PRPS1 (phosphoribosyl pyrophosphate synthetase 1) | SID160715079 | -0.917
PRPS1 (phosphoribosyl pyrophosphate synthetase 1) | SID160731557 | -1.32
GPR162 (G protein-coupled receptor 162) | SID160738577 | -0.355
GPR162 (G protein-coupled receptor 162) | SID160738578 | 6.9 (active)
GPR162 (G protein-coupled receptor 162) | SID160738579 | 2.5
LSP1 (lymphocyte specific protein 1) | SID160776747 | 1.05
LSP1 (lymphocyte specific protein 1) | SID160776748 | -0.681
LSP1 (lymphocyte specific protein 1) | SID160776749 | -0.219
SHQ1 (SHQ1, H/ACA ribonucleoprotein assembly factor) | SID160743101 | -0.0294
SHQ1 (SHQ1, H/ACA ribonucleoprotein assembly factor) | SID160743102 | 5.35 (active)
SHQ1 (SHQ1, H/ACA ribonucleoprotein assembly factor) | SID160743103 | 0.67
ZFAND2B (zinc finger AN1-type containing 2B) | SID160756988 | 1.57
ZFAND2B (zinc finger AN1-type containing 2B) | SID160756989 | -0.426
ZFAND2B (zinc finger AN1-type containing 2B) | SID160756990 | 1.66
